Assay results published in PubChem BioAssay AID1487 (National Center for Advancing Translational Sciences (NCATS), 2009).
This is one part of the list. Shown are side measurements of this screen, not its main read-out; they come without a call. Most of these compounds were active or inconclusive in the main read-out, so they are no random draw. Words in brackets tell the shape of the fitted curve; partial curves, single points and poor fits give uncertain potencies.

Experiment: qHTS Assay for Modulators of Lamin A Splicing
Conditions: HeLa LMNA splicing GFP/RFP minigene ratio, 48 h
Summary of the method: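 Read-out is the ratio of GFP to DsRed2 object intensity, acquired by 488 nm laser-scanning cytometry on HeLa lamin A-EGFP minigene reporter cells. Compound incubation 48 hrs at 37 °C in Opti-MEM with 2% FBS; DMSO 0.5% final.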

[1] = measured here: GFP splicing reporter channel
[2] = measured here: RFP viability control channel

Structure (SMILES) | AC50 [1] | AC50 [2]
O=C(Nc1ccc(NC(=O)c2cccs2)c(Cl)c1)c1ccco1 | 10 µM [falling, partial curve, poor fit] | 8.91 µM [falling, partial curve]
Nc1c(CC(=O)O)cccc1C(=O)c1ccc(Br)cc1 | 2.82 µM [falling, partial curve] | 17.8 µM [rising, partial curve, poor fit]
N#C/C(=C\C1CC2C=CC1C2)c1nc2ccccc2[nH]1 (stereo not drawn) |  | 22.4 µM [rising, single point]
Cc1ccccc1NC(=S)N=Nc1c(O)n(C)c2ccc(S(=O)(=O)N3CCOCC3)cc12 | 7.94 µM [rising, partial curve] | 7.94 µM [rising, partial curve]
COc1ccccc1NC(=O)CSC1=Nc2ccccc2C2=NC(CC(=O)NCc3cccs3)C(=O)N12 (stereo not drawn) | 0.00398 µM [falling, full curve, poor fit] | 
CCOc1ccc(NC(=S)NC(=O)/C=C/c2ccc(C)cc2)c([N+](=O)[O-])c1 | 35.5 µM [falling, single point] | 17.8 µM [falling, partial curve]
Cc1ccccc1NC(=O)CSc1nnc(-c2cccs2)o1 | 35.5 µM [falling, partial curve, poor fit] | 
COc1ccc(CCN(C)C(=O)CSc2ncnc3sccc23)cc1OC | 17.8 µM [rising, partial curve, poor fit] | 0.0631 µM [rising, full curve, poor fit]
OC(CC1CC12c1ccccc1-c1ncccc12)(c1ccccc1)c1ccccc1 (stereo not drawn) | 35.5 µM [rising, single point] | 35.5 µM [rising, single point]
CS(=O)(=O)c1nc(-c2ccccc2)cc(C(F)(F)F)n1 | 5.62 µM [falling, single point] | 3.98 µM [falling, full curve]
CCCc1c(C(=O)Nc2cc(C(C)(C)C)on2)cnn1-c1ccccc1 |  | 0.0891 µM [falling, full curve, poor fit]
C=CCn1c(SCc2nc3sc(C(=O)O)c(C)c3c(=O)[nH]2)nnc1-c1ccc(C(C)(C)C)cc1 | 0.0282 µM [rising, full curve] | 
Cc1cc(F)ccc1NC(=O)Cn1c(=O)ccc2cc(S(=O)(=O)N3CCC(C)CC3)ccc21 | 14.1 µM [falling, partial curve] | 22.4 µM [falling, partial curve, poor fit]
COC(=O)/C(=C\C(=O)c1ccc([N+](=O)[O-])cc1)Nc1ccc(OC)cc1 |  | 35.5 µM [falling, single point]
CCOc1ccc(NC(=O)N2CC=C(n3c(=O)[nH]c4ccccc43)CC2)cc1 | 20 µM [falling, partial curve, poor fit] | 1 µM [falling, full curve, poor fit]
Cc1oc2c(C)c(O)ccc2c(=O)c1-c1cnn(-c2ccccc2)c1 | 17.8 µM [falling, single point] | 35.5 µM [falling, single point]
O=C(Nc1ccc2c(c1)OCO2)C1CCCN(c2nc3ccccc3s2)C1 (stereo not drawn) | 4.47 µM [rising, full curve] | 11.2 µM [rising, partial curve]
O=C(/C=C/c1ccccc1)OCCCN=C1NS(=O)(=O)c2ccccc21 | 14.1 µM [falling, single point] | 15.8 µM [falling, single point]
O=C(CSc1ncnc2ccccc12)Nc1cc(S(=O)(=O)N2CCCCC2)ccc1Cl | 4.47 µM [rising, partial curve] | 17.8 µM [rising, partial curve]
O=S1(=O)C=CC(Nc2cccc(Cl)c2)C1 (stereo not drawn) |  | 10 µM [rising, partial curve]
O=C(N1CCN(c2cccc(Cl)c2)CC1)C1(S(=O)(=O)c2ccc(Cl)cc2)CC1 |  | 12.6 µM [rising, single point]
CCCOc1ccc(Br)cc1CSC(=N)N |  | 11.2 µM [rising, partial curve]
CCOC(=O)c1cn(Cc2ccc(Cl)cc2Cl)c2cc(C)nn2c1=O |  | 15.8 µM [rising, partial curve, poor fit]
O=C(CCN1C(=O)C2C3CCC(C3)C2C1=O)Nc1ccc(Br)cc1 (stereo not drawn) | 35.5 µM [rising, single point] | 
O=C(CSCc1c(Cl)cccc1Cl)Nc1ccccc1-c1ccccc1 |  | 20 µM [rising, single point]
Cc1ccc(S(=O)(=O)Nc2cc(C(F)(F)F)ccc2N2CCOCC2)c(C)c1 |  | 28.2 µM [rising, single point]
C=C(C)c1nc(N)nc(N)n1 |  | 20 µM [rising, single point]

Structure (SMILES) | AC50 [1] | AC50 [2]
O=C(CSc1nc(-c2ccc(Cl)cc2)cs1)Nc1cccc([N+](=O)[O-])c1 |  | 6.31 µM [rising, full curve]
COCC(C)OC(=O)/C(C#N)=C\c1coc2ccc(C)cc2c1=O (stereo not drawn) | 1.12 µM [rising, partial curve] | 15.8 µM [rising, partial curve, poor fit]
Cc1ccc(C(c2nnnn2C2CCCC2)N2CCc3ccccc32)cc1 (stereo not drawn) | 14.1 µM [rising, single point] | 15.8 µM [rising, partial curve]
O=C(CN1CCOCC1)Nc1ccccc1Sc1ccc(Cl)cc1 |  | 35.5 µM [rising, single point]
Cc1nc(SCC(=O)NCC(F)(F)F)c2c(-c3cccs3)csc2n1 |  | 11.2 µM [rising, partial curve, poor fit]
O=C(NC(=S)Nc1ccccc1N1CCCC1)c1ccc([N+](=O)[O-])cc1 |  | 22.4 µM [rising, single point]
O=C(CN1CCN(S(=O)(=O)c2ccccc2)CC1)Nc1ccc2c(c1)CCC2 | 0.00708 µM [rising, full curve, poor fit] | 0.00447 µM [rising, full curve, poor fit]
CCOc1cc(N2CCOCC2)c(OCC)cc1NC(=O)COc1ccccc1[N+](=O)[O-] |  | 2.82 µM [falling, full curve, poor fit]
Cc1ccc(NC2=NCC(Cc3ccc(Br)cc3)S2)cc1 (stereo not drawn) | 35.5 µM [falling, single point] | 35.5 µM [falling, single point]
COc1ccccc1N1CCN(CCCNC(=O)c2cnn(-c3ccccc3Cl)c2C2CCN(C(=O)OC(C)(C)C)CC2)CC1 | 2.82 µM [falling, full curve, poor fit] | 
COc1ncc2nc(CCc3ccccc3)c(=O)n(CCc3ccccc3)c2n1 |  | 14.1 µM [falling, single point]
COC(=O)c1ccccc1NC(=O)c1ccc(COc2ccccc2)o1 | 11.2 µM [rising, single point] | 20 µM [rising, single point]
CC(C)(C)NC(=O)CON=C1c2ccccc2-c2ccccc21 | 15.8 µM [rising, partial curve] | 12.6 µM [rising, partial curve]
CCCN(CCC)C1=CC(=[N+]2CCCC2)CC(C)(C)C1 | 1.58 µM [rising, partial curve] | 3.16 µM [rising, full curve]
c1ccc(-n2cnc3cc(NCc4cccs4)ccc32)cc1 | 35.5 µM [falling, single point] | 35.5 µM [falling, single point]
CCn1c(/C=C\c2ccccc2C)nc2ccccc2c1=O | 0.1 µM [falling, full curve, poor fit] | 
O=C(N/N=C/C1CC=CCC1)c1cc2ccccc2cc1O (stereo not drawn) |  | 2 µM [rising, partial curve]
O=C(Nc1nc2c(s1)CCc1ccccc1-2)c1ccco1 |  | 14.1 µM [rising, partial curve]
CN(C)c1cc[n+](CC(=O)N2CCCc3ccccc32)cc1 | 5.62 µM [falling, partial curve, poor fit] | 12.6 µM [falling, partial curve, poor fit]
COc1cc(Nc2nc(SCc3ccccc3F)nc3ccccc23)cc(OC)c1 |  | 0.355 µM [rising, partial curve]
Cc1cc(C)c2nc3nc(C)cc(C)c3c(N)c2c1 |  | 22.4 µM [rising, single point]
COc1ccc([N+](=O)[O-])cc1NC(C)C |  | 0.00447 µM [falling, full curve, poor fit]
COc1ccccc1CNc1nc(-c2ccccc2CN(C)C)nc2ccccc12 | 12.6 µM [rising, single point] | 
COc1nc(NC23CC4CC(CC(C4)C2)C3)nc(OC)n1 | 12.6 µM [rising, partial curve, poor fit] | 22.4 µM [rising, partial curve, poor fit]
CCOC(=O)CSc1cc(C)c(C#N)c2nc3ccccc3n12 | 35.5 µM [rising, single point] | 31.6 µM [rising, partial curve]
COc1ccc(C(O)c2nc3ccccc3n2C)cc1OC (stereo not drawn) |  | 2.82 µM [rising, full curve]
Cc1cccc(NC(c2cccc(F)c2)c2ccc3ccc(C)nc3c2O)n1 (stereo not drawn) |  | 2.51 µM [rising, partial curve, poor fit]

A draw from above in order of number of heavy atoms, descending:
Structure (SMILES) | AC50 [1] | AC50 [2]
COc1ccc(CCN(C)C(=O)CSc2ncnc3sccc23)cc1OC | 17.8 µM [rising, partial curve, poor fit] | 0.0631 µM [rising, full curve, poor fit]
O=C(CSc1nc(-c2ccc(Cl)cc2)cs1)Nc1cccc([N+](=O)[O-])c1 |  | 6.31 µM [rising, full curve]
Cc1cc(C)c2nc3nc(C)cc(C)c3c(N)c2c1 |  | 22.4 µM [rising, single point]
